Values quoted from earlier work in US11708348B2, “Protease inhibitors for treatment of coronavirus infections” (The Scripps Research Institute, priority 2021, dated 2023).
At least one structure is not confirmed: it was looked up by name or label, or the drawing left a doubt.

Columns and labels:
[1] = system: hospitalized COVID-19 patients; details: large multi-center trial; cited from earlier work
[2] = system: hospitalized COVID-19 patients; details: shortened from 15; cited from earlier work

In the case of CCC(CC)COC(=O)[C@H](C)N[P@](=O)(OC[C@H]1O[C@@](C#N)(c2ccc3c(N)ncnn23)[C@H](O)[C@@H]1O)Oc1ccccc1 [Remdesivir], the “mortality of hospitalized COVID-19 patients” value [1] is listed as “failed to reduce mortality” and the “median time to recovery” value [2] is listed as 11 days.
